According to PubChem BioAssay AID1508600 (Functional Genomics Laboratory (NCATS/FGL), 2020):
The campaign covered roughly 53,000 sequences. About 3,700 (7%) were called active.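 The calls were made as follows: active = gene knockdowns whose robust z-score for IL-1 alpha signal is at least 2 or at most -2, so actives lie on both sides; inactive = the rest.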 Some of the results follow.

Test: Components of the Cytosolic LPS Sensing Pathway: Gene Identification via Genome-wide siRNA Screen;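 also: robust z of the log signal after scaling to non-targeting control siRNA wells of the plate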
Conditions: RAW264.7 macrophages, IL-1a HTRF, actives lie on both sides, screened at 100 nM (by protocol), cells primed 5 h with Pam3CSK4 first
Procedure, shortened: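 Supernatant IL-1a by HTRF from RAW264.7 cells primed with Pam3CSK4 (5 hours) and transfected with LipidA (24 hour) after 48h siRNA knockdown at 100 nM; cell viability checked with CellTiter-Glo.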

z-score, active:
GGAGCUACGAAGAGGAUCUTT against Wdr45b -2.69, GGGUCACACUUCAUGGCUUTT against Pofut1 -2.07, CCCAUCAAUAUCAUAUCCATT against Car7 -2.34

z-score, inactive:
AGCCUUCUUACCACAAGUUTT against Nlrp4e 0.103, GCAAAGAUCUUUGAGUAAGTT against 4632415L05Rik -1.29, GGCCAUGAUUGAGAAGCUATT against Smtn -1.33, GCGUGUAUCUAGUGAAAUUTT against 4930524B15Rik 1.28, GGUGAAGCUGAAGAAGUACTT against Chst12 0.975, GGAGAAAAAGGGAAAGAAUTT against Dlx4 0.0644, CUACUCAGGACAUGUCUCATT against Draxin 0.0683, GCUGUCAGACUAAAGAUAUTT against Mmd -0.733, GCCAGAAAGAUUCCUUCCUTT against Olfr1419 0.541, GGGUACACUCCAUGCUUAGTT against Tcap -1.1, GUCUUGACAUUAGUACUCATT against Olfr1408 -0.32, GGUGGACAUUCCUAAGAUUTT against Ago1 -0.97, GGUCAAAGUUUGAUGUUAGTT against Tll2 -1.73, GGUCAAAUUCUUUGACCUATT against Tesk2 0.512, GGUGAUUGUCCGGUUCGGUTT against Tmem51 -0.757, GCAGAAAAAUCCUCUUACATT against Sp6 1.2, CCAGCAAUAAUGAAAAGACTT against Samd8 1.03, CGAGAUUGUGCUGAUAGAGTT against Nptx2 0.533, GGCAAGAGCAUCCUUACAGTT against Fah -0.562, CCAAGAUCGAUCAUUUUGGTT against Gm527 -0.794, GCCUAUAAGGAAUAACAAGTT against Cerkl 1.27, GGCACAGGUUUUCCAAGGUTT against Rp1l1 -0.635, GGUUCAAAUGGUCAAAUUCTT against Pcdha10 0.447, GGAAGAUGGGCAAGAUGAUTT against Sash3 -0.183, GGUCAAAAUGACCAAGGAUTT against Acot1 -1.41, GCAGAUACGACGAAGAUCUTT against Pithd1 -0.958, GGAAAGUUCCCAUGUUCUCTT against Mgat4f 1.33, CGCCACACACCAUCACAUUTT against Scap -0.0743, GGUUGACUGAAGUAAUAGCTT against Nemf -1.56, GCUUCCUGAUGGACGGACUTT against Actl9 0.366, GGAAGGAUGGAGCAAAGCCTT against Tsfm -0.214, GGGUCACGUGCUGUCUCAUTT against Slc22a20 -1.55, GGGUAUGCAAAAAUGGUUGTT against Csnk2a2 1.13, UAUAGAACAUGCCAAAUUGTT against Adam26a 1.49, GGUGUCAGGAUUUUAUAACTT against Etfbkmt -0.182, CCUCAUUUCAUUGUCUAGUTT against Kank2 -0.388, GGAGCAUGCUGGUCUUAGUTT against Bmp10 -0.197, GGUUCAACACGAUGUUCGATT against Nr1i2 0.162, GAGAAAGAUAAUUACCUGGTT against Tnfrsf22 0.552, CCUUCAACACCAGUUUGGGTT against Olfr1393 0.45, GGUAAAGAUGAAAAUGUGUTT against Fut9 -0.311, GGAGGAACACAAGAUUUUCTT against Ppp2r5c -0.322, GGUAACAUGGUUUUAACAGTT against Tmem200a -0.0515, GGAUUCUGUAGGUCUUCCUTT against Defb19 0.9, GGACCUUAAUUGCAUCAUUTT against Mapk3 1.88, GGGAAGGAUGUGCUUAUGATT against Rab38 -1.09, GGUACAUUUCAACCACAUUTT against Lnx1 1.91, GCUACGACUCGGAUGAUACTT against Doc2a -0.682, GGAACAGAAUACAAAAAAGTT against Syap1 -0.266, CCCUCUUAGUAACUGGCUCTT against Cdhr4 -0.0846, GCUGAAAUAGUUGCUAAAUTT against Usp6nl 0.443, GGUUGAAAUAGAGAUCAUATT against Tmprss11g -0.43, GGACAAGCAAUAACUCUACTT against Mapkapk2 1.44, GGUAGUGAAGUUCUCCUACTT against Spop 0.256, CCUUGUUAUUAGGAACUCUTT against Xpo7 1.96, GGAAGACAGCAUGUGGACATT against Ghrh -1.32, GGAAGCCUUUUGAUGACGCTT against Gsta3 -1.46, GGCAUGAUGCUGAUCAUUCTT against Olfr1100 -0.0763, GGCAUUAUUAAAAGUGUGATT against Psmd9 0.208, GCUGUCUAAUGUCAAUUCUTT against Txnrd1 0.258, GGGAUGAUGCCAAAUAUAUTT against Kl 1.29, GGUGCCUAGUUUGUGGAUATT against Gatd3a 0.542, GCUGUUGGUUGAGCCUGAATT against Ager -0.29, GGAGUAUGGUAUCAACCCGTT against Pgp -0.15, GGAGAAAGACAAGGAAAAUTT against Clk3 -1.56
